Experimental data as given in US20060046250A1 (SEOUL NATIONAL UNIVERSITY INDUSTRY FOUNDATION, published 2006).
No constants are given. Whether binding was seen depends on the method and setting. In cells and extracts the contact can be indirect. Some entries that bind do so weakly or less than the wild type.

Amino acid sequences for entries named in this document (tags omitted).
UniProt Q13535: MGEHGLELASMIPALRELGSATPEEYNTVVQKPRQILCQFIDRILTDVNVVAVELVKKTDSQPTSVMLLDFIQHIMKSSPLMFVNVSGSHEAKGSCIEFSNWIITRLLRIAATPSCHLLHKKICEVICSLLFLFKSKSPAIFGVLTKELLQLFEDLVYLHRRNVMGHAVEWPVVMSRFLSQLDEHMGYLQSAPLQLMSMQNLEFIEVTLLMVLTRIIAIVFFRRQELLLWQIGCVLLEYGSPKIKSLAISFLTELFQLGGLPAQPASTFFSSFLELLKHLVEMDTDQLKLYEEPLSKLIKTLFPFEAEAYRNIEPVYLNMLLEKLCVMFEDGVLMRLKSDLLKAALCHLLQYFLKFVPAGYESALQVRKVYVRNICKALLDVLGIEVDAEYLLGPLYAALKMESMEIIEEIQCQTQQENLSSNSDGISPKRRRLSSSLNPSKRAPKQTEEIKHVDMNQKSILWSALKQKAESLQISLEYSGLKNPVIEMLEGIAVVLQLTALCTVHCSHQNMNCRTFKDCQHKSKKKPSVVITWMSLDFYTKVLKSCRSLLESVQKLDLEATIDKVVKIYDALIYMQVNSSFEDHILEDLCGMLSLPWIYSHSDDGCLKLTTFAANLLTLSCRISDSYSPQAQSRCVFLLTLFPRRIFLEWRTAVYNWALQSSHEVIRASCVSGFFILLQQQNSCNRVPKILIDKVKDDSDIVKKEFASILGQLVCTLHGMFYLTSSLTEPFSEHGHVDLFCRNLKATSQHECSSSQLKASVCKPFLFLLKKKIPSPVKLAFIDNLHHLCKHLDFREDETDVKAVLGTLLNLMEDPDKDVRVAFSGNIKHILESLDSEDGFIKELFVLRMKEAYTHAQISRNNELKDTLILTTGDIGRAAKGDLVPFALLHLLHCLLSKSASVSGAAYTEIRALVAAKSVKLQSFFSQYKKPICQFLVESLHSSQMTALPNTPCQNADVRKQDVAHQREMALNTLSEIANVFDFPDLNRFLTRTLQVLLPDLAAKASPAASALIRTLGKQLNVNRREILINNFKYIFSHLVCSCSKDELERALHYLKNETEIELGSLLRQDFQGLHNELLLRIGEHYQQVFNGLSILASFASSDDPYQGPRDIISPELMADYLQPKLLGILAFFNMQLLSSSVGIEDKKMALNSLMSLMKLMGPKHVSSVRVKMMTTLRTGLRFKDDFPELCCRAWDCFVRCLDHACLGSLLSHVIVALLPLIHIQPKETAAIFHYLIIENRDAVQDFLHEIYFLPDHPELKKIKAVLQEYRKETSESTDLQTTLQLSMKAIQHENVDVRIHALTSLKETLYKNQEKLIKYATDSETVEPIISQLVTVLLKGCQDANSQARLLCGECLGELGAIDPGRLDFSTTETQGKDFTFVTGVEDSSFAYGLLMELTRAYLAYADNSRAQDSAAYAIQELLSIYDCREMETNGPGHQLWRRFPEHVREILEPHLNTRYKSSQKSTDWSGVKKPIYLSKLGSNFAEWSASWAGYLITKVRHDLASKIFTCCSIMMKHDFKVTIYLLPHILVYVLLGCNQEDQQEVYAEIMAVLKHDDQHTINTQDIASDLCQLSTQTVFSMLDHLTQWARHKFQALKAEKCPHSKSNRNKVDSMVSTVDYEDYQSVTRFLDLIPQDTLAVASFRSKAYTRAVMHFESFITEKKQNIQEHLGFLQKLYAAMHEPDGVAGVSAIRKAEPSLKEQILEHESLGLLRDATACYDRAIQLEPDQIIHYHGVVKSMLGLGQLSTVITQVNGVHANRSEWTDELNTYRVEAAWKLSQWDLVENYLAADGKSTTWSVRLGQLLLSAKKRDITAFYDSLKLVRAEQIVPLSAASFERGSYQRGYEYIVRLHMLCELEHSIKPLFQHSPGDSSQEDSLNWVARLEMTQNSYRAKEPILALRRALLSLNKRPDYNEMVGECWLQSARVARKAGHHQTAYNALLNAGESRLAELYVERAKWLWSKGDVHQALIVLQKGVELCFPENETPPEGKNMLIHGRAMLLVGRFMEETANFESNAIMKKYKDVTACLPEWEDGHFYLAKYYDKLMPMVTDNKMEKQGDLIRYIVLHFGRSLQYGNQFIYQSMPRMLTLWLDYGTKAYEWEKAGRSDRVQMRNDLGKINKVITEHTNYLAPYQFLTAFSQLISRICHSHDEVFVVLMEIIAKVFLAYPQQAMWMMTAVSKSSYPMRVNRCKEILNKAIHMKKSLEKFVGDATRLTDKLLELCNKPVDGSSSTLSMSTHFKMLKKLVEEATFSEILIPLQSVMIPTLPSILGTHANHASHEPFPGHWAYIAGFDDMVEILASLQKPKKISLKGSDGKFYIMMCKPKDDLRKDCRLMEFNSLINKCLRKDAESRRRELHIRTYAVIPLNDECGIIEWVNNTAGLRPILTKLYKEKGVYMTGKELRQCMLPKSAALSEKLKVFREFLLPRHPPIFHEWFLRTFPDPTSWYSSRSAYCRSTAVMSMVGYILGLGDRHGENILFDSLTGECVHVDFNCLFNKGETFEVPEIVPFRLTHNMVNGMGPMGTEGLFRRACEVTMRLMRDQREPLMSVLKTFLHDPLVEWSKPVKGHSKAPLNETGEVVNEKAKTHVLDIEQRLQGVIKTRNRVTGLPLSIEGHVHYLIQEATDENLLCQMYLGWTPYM

Columns and labels:
flag-tagged ATR [1] = molecular target: flag-tagged ATR (UniProt Q13535); experiment: co-immunoprecipitation (summary of FIGS. 8a to 8c)
flag-tagged ATR [2] = molecular target: flag-tagged ATR (UniProt Q13535); experiment: co-immunoprecipitation from transfected 293 cells with an anti-FLAG antibody, Western blot with an anti-AIM3 antibody

- binding (flag-tagged ATR [1]): binds
- binding (flag-tagged ATR [2]): binds
B1: AIM3 (ARS-interacting multifunctional protein 3) (protein)
chain: AAAAELSLLEKSLGLSKGNKYSAQGERQIPVLQTNNGPSLTGLTTIAAHLVKQANKEYLLGSTAEEKAIVQQWLEYRVTQVDGHSSKNDIHTLLKDLNSYLEDKVYLTGYNFTLADILLYYGLHRFIVDLTVQEKEKYLNVSRWFCHIQHYPGIRQHLSSVVFIKNRLYTNSH
